The values below come from article PMC4463469.

Experiment [1] has as its target T1, Cox17 fusion protein with a C-terminal FLAG tag (S. cerevisiae) (UniProt Q12287).
T1 sequence: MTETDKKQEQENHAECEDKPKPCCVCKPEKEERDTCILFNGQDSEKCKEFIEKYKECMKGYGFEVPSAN
The experiment can be described thus: co-IP; anti-FLAG M2 affinity gel on yeast cell extracts (French press, 1% digitonin, 20 mM Tris-HCl pH 7.4, 50 mM NaCl, 50 mM iodoacetamide), 1.5 h at 4 °C; Western blot of eluate; wild-type, mic60Δ, mic10Δ and sco1Δ cells; cells grown with or without 2.2 mM copper sulfate.

The target in experiment [2] is T1, Cox17 fusion protein with a C-terminal FLAG tag (S. cerevisiae). The experiment can be described thus: co-IP; anti-FLAG M2 affinity gel on isolated wild-type mitochondria solubilized in 1% digitonin, 10% glycerol, 20 mM Tris-HCl pH 7.4, 300 mM NaCl, 50 mM iodoacetamide; Western blot of eluate. For orientation: In western blotting, separated proteins are transferred to a membrane and probed.

No constants are given. Whether binding was seen depends on the method and setting. Binding seen in cells or lysates may run through a third protein. Binding can be weak; no strength is given. Tags and fused reporters may be left off the sequences shown.

Sco1: the binding result in experiment [1] and in experiment [2] was “binds” each time.
